Laboratory results as given in article PMC8579195.
These are yes or no findings as the source states them, for the method shown. Binding seen in cells or lysates may run through a third protein. A yes stands for co-enrichment or nearness to the bait. Other partners may have been found. Where a sequence is shown, tags or fusion partners need not be part of it.

Target: T1, MARCH5-PafA-Myc (human) (UniProt Q9NX47)
T1 sequence: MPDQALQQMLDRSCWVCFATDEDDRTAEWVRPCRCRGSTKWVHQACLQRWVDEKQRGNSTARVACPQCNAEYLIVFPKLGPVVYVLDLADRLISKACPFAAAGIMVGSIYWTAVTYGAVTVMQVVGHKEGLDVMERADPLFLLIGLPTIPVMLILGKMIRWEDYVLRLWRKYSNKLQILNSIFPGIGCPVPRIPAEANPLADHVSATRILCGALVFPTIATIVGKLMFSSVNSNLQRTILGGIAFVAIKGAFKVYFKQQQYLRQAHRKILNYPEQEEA
Experiment: proximity labelling; PUP-IT: MARCH5-PafA-Myc in iPUP Jurkat cells, biotin 4 μM and Dox 2 μg/ml for 48 h; denatured lysate (8 M urea), streptavidin beads, on-bead digestion, MS; control iPUP cells without MARCH5-PafA-Myc; three biological repeats

binding: binds
B1: PEX3 (endogenous, Jurkat) (protein, UniProt P56589 1-373)
chain: MLRSVWNFLKRHKKKCIFLGTVLGGVYILGKYGQKKIREIQEREAAEYIAQARRQYHFESNQRTCNMTVLSMLPTLREALMQQLNSESLTALLKNRPSNKLEIWEDLKIISFTRSTVAVYSTCMLVVLLRVQLNIIGGYIYLDNAAVGKNGTTILAPPDVQQQYLSSIQHLLGDGLTELITVIKQAVQKVLGSVSLKHSLSLLDLEQKLKEIRNLVEQHKSSSWINKDGSKPLLCHYMMPDEETPLAVQACGLSPRDITTIKLLNETRDMLESPDFSTVLNTCLNRGFSRLLDNMAEFFRPTEQDLQHGNSMNSLSSVSLPLAKIIPIVNGQIHSVCSETPSHFVQDLLTMEQVKDFAANVYEAFSTPQQLEK
